Where a protein sequence is shown, tags need not be part of it.
Molecular target: T1, 6His-OxyR-Like (Magnetospirillum gryphiswaldense MSR-1) (UniProt V6F1S1)
T1 sequence (looked up): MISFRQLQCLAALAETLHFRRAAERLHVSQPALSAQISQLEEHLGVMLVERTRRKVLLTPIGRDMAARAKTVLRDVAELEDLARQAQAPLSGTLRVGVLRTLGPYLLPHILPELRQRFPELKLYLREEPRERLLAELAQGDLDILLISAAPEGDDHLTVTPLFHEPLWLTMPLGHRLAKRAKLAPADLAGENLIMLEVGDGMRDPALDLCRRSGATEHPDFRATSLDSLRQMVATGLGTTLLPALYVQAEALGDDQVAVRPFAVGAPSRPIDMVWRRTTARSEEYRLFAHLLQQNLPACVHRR
Experiment: DNase I footprinting
Settings: footprinting: 1000 ng labeled DNA, 25 uL, 25 C 30 min, DNase I 0.1 U at 37 C; salt and pH not stated; recombinant protein; residues 1-303; protein details: N-terminal 6xHis (pET-28a); label: fluorescent label; probe letters rebuilt from the primers and the genome

Row | Sequence | binding result
1 | ATCTCCGCCGACTTGGCTTTGCGCTTGGACGTGGTCGCCATGGTTCCTCCCAGGGCAGGATGATGTGAGTGCGTAGACAGATAGGTAAACCAACCTTCCCTTTTAGGCAAGGCGTTTCGCCGTCAAAAATGCTTATATTGCAATGCAATAATGGCAATTAACTGGATAATAGTTATTTATCAAAACCTAACCAGATGGGCGGGCAACGGGTGGTGCGATGCAGCAATCCTTTTGCCTCATCGGGTTAGCGCCTGACAGGGATATTGGGAGCGGGCAAACACTTGAAAACCCACCCGGCGGACAAAATCGCGCCAACCGGTCCATTTCACAATGCACCCATTCAGAGCAAACGCATGACAACAAAGCAAACAAGACTACCATGAACACAGAACCCGCCCA (double strand) [pdh promoter footprinting fragment] | binds
2 | CCAGATGCTCTTCCAGTTGGGAGATTTGCGCCGACAGGGCCGGCTGCGACACGTGCAGCCGCTCGGCCGCACGGCGAAAGTGCAGGGTTTCGGCCAGGGCGGCCAGGCATTGTAATTGGCGAAAGCTGATCATGGATCACTGATAACAATTTACTATCAATATCTCAAGATATATCGATTAGAATTATCACAAAGAAGGGGGCATAGTCTCAATCACGGACAACAGCCTAATGGAGACGACGATGTCCATTCTTCGCCCCGCTTCGGATACCGCCAGCGCCTATTACAAGGCCATGCGCGAGACCGCCTTGCTGTCGGGAGAAGACGAGGCGGAGCTGATCCGCCGTTGGAAGGACGAAGGTGACGAGA (double strand) [oxyR-Like promoter footprinting fragment] | binds
